Measurements reported in PubChem BioAssay AID504774 (Drosophila RNAi Screening Center, 2011)

- Aim: 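Genes required for cells to withstand methyl methanesulphonate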 (primary screen)
- Cell system: Drosophila Kc167 cells
- Knock-down reagent: long dsRNA against Drosophila genes, about 0.25 µg dsRNA per well
- Duration: about 6 days: 3 days knock-down, then 3 days with or without MMS
- Challenge: methyl methanesulphonate 0.004% (w/v) for 3 days after knock-down
- Measurement: 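ATP-dependent luminescence as a measure of live cells in MMS-exposed wells, quantile normalised within each plate, with replicate values also given as a mean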
- Direction: mean viability with MMS and viability with MMS: higher = more surviving cells after MMS
The screen tested about 23,000 reagents; this is an unselected part of those with a known target gene and a result. 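Values are quantile-normalised luminescence on an arbitrary scale; higher means more cells surviving MMS.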 Reagents against one gene are numbered here. Names joined by + are all predicted targets of the reagent. No sequences are given here.

The first 2 records, to show the layout:
| Gene | reagent | mean viability with MMS | viability with MMS, replicate 1 | viability with MMS, replicate 2 |
| --- | --- | --- | --- | --- |
| CG6026 (GeneID 42287) | 1 | 3.58e6 | 4.25e6 | 3.87e6 |
| dgt6 (GeneID 43441) | 1 | 3.57e6 | 4.02e6 | 4.07e6 |

Main list, from the start:
| Gene | reagent | mean viability with MMS | viability with MMS, replicate 1 | viability with MMS, replicate 2 |
| --- | --- | --- | --- | --- |
| CG6026 (GeneID 42287) | 1 | 3.58e6 | 4.25e6 | 3.87e6 |
| dgt6 (GeneID 43441) | 1 | 3.57e6 | 4.02e6 | 4.07e6 |
| Srx (GeneID 32768) | 1 | 3.66e6 | 4.16e6 | 4.10e6 |
| CG1208 (GeneID 40727) | 1 | 3.44e6 | 3.85e6 | 3.91e6 |
| CG10694 (GeneID 42855) | 1 | 3.56e6 | 4.13e6 | 3.94e6 |
| CG13983 (GeneID 33875) | 1 | 3.28e6 | 3.77e6 | 3.53e6 |
| Csgalnact (GeneID 36079) | 1 | 3.50e6 | 4.03e6 | 3.92e6 |
| Sh3beta (GeneID 38820) | 1 | 3.55e6 | 3.98e6 | 4.08e6 |
| Sh3beta (GeneID 38820) | 2 | 3.75e6 | 4.31e6 | 4.09e6 |
| Jhbp13 (GeneID 34729) | 1 | 3.43e6 | 3.88e6 | 3.91e6 |
| Orcokinin (GeneID 37806) | 1 | 3.44e6 | 3.97e6 | 3.81e6 |
| GstT2 (GeneID 246386) | 1 | 3.48e6 | 3.95e6 | 3.97e6 |
| Cka (GeneID 34096) | 1 | 3.70e6 | 4.38e6 | 4.02e6 |
| Cka (GeneID 34096) | 2 | 3.27e6 | 3.88e6 | 3.75e6 |
| Gbeta76C (GeneID 40148) | 1 | 3.53e6 | 3.96e6 | 4.02e6 |
| Nnp-1 (GeneID 44391) | 1 | 3.47e6 | 3.99e6 | 3.88e6 |
| CG11241 (GeneID 40492) | 1 | 3.63e6 | 4.05e6 | 4.17e6 |
| CG11241 (GeneID 40492) | 2 | 3.44e6 | 3.90e6 | 3.95e6 |
| psd (GeneID 33830) | 1 | 3.46e6 | 3.94e6 | 3.91e6 |
| nac (GeneID 40981) | 1 | 3.44e6 | 3.88e6 | 3.95e6 |
| CG8852 (GeneID 33577) | 1 | 3.62e6 | 4.19e6 | 3.98e6 |
| obst-A (GeneID 33022) | 1 | 3.68e6 | 4.19e6 | 4.20e6 |
| beta3GalTII (GeneID 35848) | 1 | 3.48e6 | 3.98e6 | 3.93e6 |
| CG10175 (GeneID 42773) | 1 | 3.59e6 | 4.02e6 | 4.12e6 |
| CG10175 (GeneID 42773) | 2 | 3.68e6 | 4.24e6 | 4.10e6 |
| CG10175 (GeneID 42773) | 3 | 3.37e6 | 3.90e6 | 3.87e6 |
| CG6015 (GeneID 42593) | 1 | 3.24e6 | 3.70e6 | 3.71e6 |
| CG34325 (GeneID 32656) | 1 | 3.67e6 | 4.14e6 | 4.14e6 |
| CG34325 (GeneID 32656) | 2 | 3.67e6 | 4.04e6 | 4.23e6 |
| CG31743 + CG34313 | 1 | 3.49e6 | 3.95e6 | 3.96e6 |
| CG31743 + CG34313 | 2 | 3.44e6 | 3.94e6 | 3.88e6 |
| CG31627 (GeneID 318860) | 1 | 3.63e6 | 4.07e6 | 4.10e6 |
| CG14720 (GeneID 41415) | 1 | 3.60e6 | 4.08e6 | 4.04e6 |
| Ube3a (GeneID 39266) | 1 | 3.57e6 | 4.04e6 | 4.06e6 |
| CG31924 (GeneID 319030) | 1 | 3.47e6 | 3.89e6 | 3.97e6 |
| CG14380 (GeneID 41621) | 1 | 3.53e6 | 3.88e6 | 4.15e6 |
| nesd (GeneID 35298) | 1 | 3.34e6 | 3.84e6 | 3.67e6 |
| eg (GeneID 40428) | 1 | 3.58e6 | 4.05e6 | 4.07e6 |
| CG14000 (GeneID 33820) | 1 | 3.57e6 | 4.17e6 | 3.92e6 |
| CG12507 (GeneID 32580) | 1 | 3.49e6 | 3.98e6 | 3.91e6 |
| XRCC1 (GeneID 31451) | 1 | 3.57e6 | 4.03e6 | 3.87e6 |
| Wdr92 (GeneID 39997) | 1 | 3.59e6 | 4.08e6 | 4.06e6 |
| Tsen2 (GeneID 318956) | 1 | 3.47e6 | 4.00e6 | 3.89e6 |
| CG13653 (GeneID 43025) | 1 | 3.51e6 | 3.77e6 | 4.17e6 |
| TM4SF (GeneID 37786) | 1 | 3.36e6 | 3.85e6 | 3.64e6 |
| Proc-R (GeneID 31408) | 1 | 3.66e6 | 4.18e6 | 4.11e6 |
| CG15912 (GeneID 31385) | 1 | 3.46e6 | 3.95e6 | 3.90e6 |
| CG30324 (GeneID 246540) | 1 | 3.54e6 | 4.02e6 | 3.99e6 |
| CG4962 (GeneID 39793) | 1 | 3.50e6 | 3.95e6 | 3.98e6 |
| Cpr65Ea (GeneID 38773) | 1 | 3.51e6 | 3.94e6 | 4.03e6 |
| dbf (GeneID 34462) | 1 | 3.27e6 | 3.66e6 | 3.72e6 |
| Gr10b (GeneID 32085) | 1 | 3.44e6 | 3.88e6 | 3.91e6 |
| CG5131 (GeneID 35057) | 1 | 3.62e6 | 3.98e6 | 4.21e6 |
| CG32755 (GeneID 318192) | 1 | 3.48e6 | 3.96e6 | 3.94e6 |
| CG31636 (GeneID 318865) | 1 | 3.53e6 | 3.93e6 | 4.06e6 |
| Syn (GeneID 41247) | 1 | 3.63e6 | 4.02e6 | 4.15e6 |
| CG43737 (GeneID 32448) | 1 | 3.42e6 | 3.90e6 | 3.81e6 |
| RpS10b (GeneID 32953) | 1 | 3.51e6 | 3.97e6 | 4.01e6 |
| CG10927 (GeneID 37135) | 1 | 3.54e6 | 4.02e6 | 3.98e6 |
| cup (GeneID 33934) | 1 | 3.29e6 | 3.61e6 | 3.71e6 |
| CG12935 + Nop10 | 1 | 3.46e6 | 3.86e6 | 4.00e6 |
| CG6495 (GeneID 34486) | 1 | 3.55e6 | 4.14e6 | 3.92e6 |
| CG30339 (GeneID 246549) | 1 | 3.43e6 | 3.88e6 | 3.86e6 |
| CG9993 (GeneID 37358) | 1 | 3.54e6 | 4.05e6 | 3.97e6 |
| Gem4b + Gem4c | 1 | 3.53e6 | 3.99e6 | 4.03e6 |
| CG14069 (GeneID 34510) | 1 | 3.83e6 | 4.18e6 | 4.56e6 |
| Nurf-38 (GeneID 37922) | 1 | 3.39e6 | 3.86e6 | 3.78e6 |
| ssp5 (GeneID 41465) | 1 | 3.79e6 | 4.30e6 | 4.29e6 |
| PIG-F (GeneID 40139) | 1 | 3.84e6 | 4.28e6 | 4.23e6 |
| CG11378 (GeneID 31060) | 1 | 3.51e6 | 3.95e6 | 4.03e6 |
| Nsun2 (GeneID 45064) | 1 | 3.32e6 | 3.70e6 | 3.88e6 |
| CG10185 (GeneID 41953) | 1 | 3.64e6 | 4.14e6 | 4.15e6 |
| mRpS34 (GeneID 39809) | 1 | 3.78e6 | 4.24e6 | 4.23e6 |
| CG4789 (GeneID 32668) | 1 | 3.57e6 | 4.06e6 | 4.02e6 |
| Dscam3 (GeneID 42103) | 1 | 3.49e6 | 4.02e6 | 3.91e6 |
| Dscam3 (GeneID 42103) | 2 | 3.53e6 | 4.01e6 | 4.00e6 |
| Rab11 (GeneID 42501) | 1 | 3.38e6 | 3.92e6 | 3.79e6 |
| Atg6 (GeneID 42850) | 1 | 3.64e6 | 4.10e6 | 4.12e6 |
| fs(2)ltoPP43 (GeneID 49505) | 1 | 3.53e6 | 3.96e6 | 4.03e6 |
| CG16700 (GeneID 32694) | 1 | 3.55e6 | 4.05e6 | 4.00e6 |
| PGRP-SC1a (GeneID 35859) | 1 | 3.49e6 | 3.96e6 | 3.97e6 |
| CG7741 (GeneID 36208) | 1 | 3.41e6 | 4.02e6 | 3.29e6 |
| form3 (GeneID 3346238) | 1 | 3.50e6 | 3.83e6 | 4.13e6 |
| form3 (GeneID 3346238) | 2 | 3.61e6 | 4.12e6 | 4.07e6 |
| form3 (GeneID 3346238) | 3 | 3.50e6 | 3.99e6 | 3.96e6 |
| pon (GeneID 31394) | 1 | 3.55e6 | 4.09e6 | 3.98e6 |
| CG16978 (GeneID 50446) | 1 | 3.57e6 | 4.04e6 | 4.05e6 |
